Source: publication PMC8466577

Sequences of proteins named here, by UniProt entry; tags and fusion partners are left off.
UniProt P09429: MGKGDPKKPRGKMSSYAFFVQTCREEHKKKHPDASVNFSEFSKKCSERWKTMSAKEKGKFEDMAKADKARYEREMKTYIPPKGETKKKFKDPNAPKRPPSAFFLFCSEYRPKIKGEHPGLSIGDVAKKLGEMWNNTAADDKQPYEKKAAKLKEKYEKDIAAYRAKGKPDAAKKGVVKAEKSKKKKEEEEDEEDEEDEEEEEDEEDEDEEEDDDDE

T1: THOC5 (human (endogenous in SKOV-3 and PC-3)) (UniProt Q13769)
T1 sequence: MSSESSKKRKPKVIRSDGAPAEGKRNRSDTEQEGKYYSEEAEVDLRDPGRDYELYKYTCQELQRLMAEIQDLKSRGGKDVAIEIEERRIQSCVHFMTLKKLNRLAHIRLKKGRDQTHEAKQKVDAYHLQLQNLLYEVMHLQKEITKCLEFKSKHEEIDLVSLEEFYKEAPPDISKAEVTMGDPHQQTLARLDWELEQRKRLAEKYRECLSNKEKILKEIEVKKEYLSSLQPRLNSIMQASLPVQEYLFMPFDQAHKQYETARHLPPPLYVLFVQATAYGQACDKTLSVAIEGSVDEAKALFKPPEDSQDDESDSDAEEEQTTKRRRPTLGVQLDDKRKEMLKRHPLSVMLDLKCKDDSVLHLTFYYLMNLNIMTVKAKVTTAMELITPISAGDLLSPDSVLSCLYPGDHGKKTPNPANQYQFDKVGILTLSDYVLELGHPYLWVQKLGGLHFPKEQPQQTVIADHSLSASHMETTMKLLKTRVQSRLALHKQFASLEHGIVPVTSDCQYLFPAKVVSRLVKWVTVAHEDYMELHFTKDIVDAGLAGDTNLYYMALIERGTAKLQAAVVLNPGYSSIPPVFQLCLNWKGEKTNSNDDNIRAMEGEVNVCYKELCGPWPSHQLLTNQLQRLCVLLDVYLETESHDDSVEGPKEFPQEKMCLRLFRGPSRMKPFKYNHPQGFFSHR

B1: SEPT7 (protein, UniProt Q16181 1-437)
chain: MSVSARSAAAEERSVNSSTMVAQQKNLEGYVGFANLPNQVYRKSVKRGFEFTLMVVGESGLGKSTLINSLFLTDLYSPEYPGPSHRIKKTVQVEQSKVLIKEGGVQLLLTIVDTPGFGDAVDNSNCWQPVIDYIDSKFEDYLNAESRVNRRQMPDNRVQCCLYFIAPSGHGLKPLDIEFMKRLHEKVNIIPLIAKADTLTPEECQQFKKQIMKEIQEHKIKIYEFPETDDEEENKLVKKIKDRLPLAVVGSNTIIEVNGKRVRGRQYPWGVAEVENGEHCDFTILRNMLIRTHMQDLKDVTNNVHYENYRSRKLAAVTYNGVDNNKNKGQLTKSPLAQMEEERREHVAKMKKMEMEMEQVFEMKVKEKVQKLKDSEAELQRRHEQMKKNLEAQHKELEEKRRQFEDEKANWEAQQRILEQQNSSRTLEKNKKKGKIF
B2: SEPT11 (protein, UniProt Q9NVA2 1-429)
chain: MAVAVGRPSNEELRNLSLSGHVGFDSLPDQLVNKSTSQGFCFNILCVGETGIGKSTLMDTLFNTKFESDPATHNEPGVRLKARSYELQESNVRLKLTIVDTVGFGDQINKDDSYKPIVEYIDAQFEAYLQEELKIKRSLFNYHDTRIHACLYFIAPTGHSLKSLDLVTMKKLDSKVNIIPIIAKADTIAKNELHKFKSKIMSELVSNGVQIYQFPTDEETVAEINATMSVHLPFAVVGSTEEVKIGNKMAKARQYPWGVVQVENENHCDFVKLREMLIRVNMEDLREQTHTRHYELYRRCKLEEMGFKDTDPDSKPFSLQETYEAKRNEFLGELQKKEEEMRQMFVMRVKEKEAELKEAEKELHEKFDLLKRTHQEEKKKVEDKKKELEEEVNNFQKKKAAAQLLQSQAQQSGAQQTKKDKDKKNASFT
B3: SEPT10 (protein, UniProt Q9P0V9 1-454)
chain: MASSEVARHLLFQSHMATKTTCMSSQGSDDEQIKRENIRSLTMSGHVGFESLPDQLVNRSIQQGFCFNILCVGETGIGKSTLIDTLFNTNFEDYESSHFCPNVKLKAQTYELQESNVQLKLTIVNTVGFGDQINKEESYQPIVDYIDAQFEAYLQEELKIKRSLFTYHDSRIHVCLYFISPTGHSLKTLDLLTMKNLDSKVNIIPVIAKADTVSKTELQKFKIKLMSELVSNGVQIYQFPTDDDTIAKVNAAMNGQLPFAVVGSMDEVKVGNKMVKARQYPWGVVQVENENHCDFVKLREMLICTNMEDLREQTHTRHYELYRRCKLEEMGFTDVGPENKPVSVQETYEAKRHEFHGERQRKEEEMKQMFVQRVKEKEAILKEAERELQAKFEHLKRLHQEERMKLEEKRRLLEEEIIAFSKKKATSEIFHSQSFLATGSNLRKDKDRKNSNFL
B4: SEPT8 (protein, UniProt Q92599 1-483)
chain: MAATDLERFSNAEPEPRSLSLGGHVGFDSLPDQLVSKSVTQGFSFNILCVGETGIGKSTLMNTLFNTTFETEEASHHEACVRLRPQTYDLQESNVQLKLTIVDAVGFGDQINKDESYRPIVDYIDAQFENYLQEELKIRRSLFDYHDTRIHVCLYFITPTGHSLKSLDLVTMKKLDSKVNIIPIIAKADTISKSELHKFKIKIMGELVSNGVQIYQFPTDDEAVAEINAVMNAHLPFAVVGSTEEVKVGNKLVRARQYPWGVVQVENENHCDFVKLREMLIRVNMEDLREQTHSRHYELYRRCKLEEMGFQDSDGDSQPFSLQETYEAKRKEFLSELQRKEEEMRQMFVNKVKETELELKEKERELHEKFEHLKRVHQEEKRKVEEKRRELEEETNAFNRRKAAVEALQSQALHATSQQPLRKDKDKKNRSDIGAHQPGMSLSSSKVMMTKASVEPLNCSSWWPAIQCCSCLVRDATWREGFL
B5: SEPT2 (protein, UniProt Q15019 1-361)
chain: MSKQQPTQFINPETPGYVGFANLPNQVHRKSVKKGFEFTLMVVGESGLGKSTLINSLFLTDLYPERVIPGAAEKIERTVQIEASTVEIEERGVKLRLTVVDTPGYGDAINCRDCFKTIISYIDEQFERYLHDESGLNRRHIIDNRVHCCFYFISPFGHGLKPLDVAFMKAIHNKVNIVPVIAKADTLTLKERERLKKRILDEIEEHNIKIYHLPDAESDEDEDFKEQTRLLKASIPFSVVGSNQLIEAKGKKVRGRLYPWGVVEVENPEHNDFLKLRTMLITHMQDLQEVTQDLHYENFRSERLKRGGRKVENEDMNKDQILLEKEAELRRMQEMIARMQAQMQMQMQGGDGDGGALGHHV
B6: RRS1 (protein, UniProt Q15050 1-365)
chain: MEGQSVEELLAKAEQDEAEKLQRITVHKELELQFDLGNLLASDRNPPTGLRCAGPTPEAELQALARDNTQLLINQLWQLPTERVEEAIVARLPEPTTRLPREKPLPRPRPLTRWQQFARLKGIRPKKKTNLVWDEVSGQWRRRWGYQRARDDTKEWLIEVPGNADPLEDQFAKRIQAKKERVAKNELNRLRNLARAHKMQLPSAAGLHPTGHQSKEELGRAMQVAKVSTASVGRFQERLPKEKVPRGSGKKRKFQPLFGDFAAEKKNQLELLRVMNSKKPQLDVTRATNKQMREEDQEEAAKRRKMSQKGKRKGGRQGPGGKRKGGPPSQGGKRKGGLGGKMNSGPPGLGGKRKGGQRPGGKRRK
B7: ZNF512B (protein, UniProt Q96KM6 1-892)
chain: MTDPFCVGGRRLPGSSKSGPGKDGSRKEVRLPMLHDPPKMGMPVVRGGQTVPGQAPLCFDPGSPASDKTEGKKKGRPKAENQALRDIPLSLMNDWKDEFKAHSRVKCPNSGCWLEFPSIYGLKYHYQRCQGGAISDRLAFPCPFCEAAFTSKTQLEKHRIWNHMDRPLPASKPGPISRPVTISRPVGVSKPIGVSKPVTIGKPVGVSKPIGISKPVSVGRPMPVTKAIPVTRPVPVTKPVTVSRPMPVTKAMPVTKPITVTKSVPVTKPVPVTKPITVTKLVTVTKPVPVTKPVTVSRPIVVSKPVTVSRPIAISRHTPPCKMVLLTRSENKAPRATGRNSGKKRAADSLDTCPIPPKQARPENGEYGPSSMGQSSAFQLSADTSSGSLSPGSRPSGGMEALKAAGPASPPEEDPERTKHRRKQKTPKKFTGEQPSISGTFGLKGLVKAEDKARVHRSKKQEGPGPEDARKKVPAAPITVSKEAPAPVAHPAPGGPEEQWQRAIHERGEAVCPTCNVVTRKTLVGLKKHMEVCQKLQDALKCQHCRKQFKSKAGLNYHTMAEHSAKPSDAEASEGGEQEERERLRKVLKQMGRLRCPQEGCGAAFSSLMGYQYHQRRCGKPPCEVDSPSFPCTHCGKTYRSKAGHDYHVRSEHTAPPPEEPTDKSPEAEDPLGVERTPSGRVRRTSAQVAVFHLQEIAEDELARDWTKRRMKDDLVPETARLNYTRPGLPTLNPQLLEAWKNEVKEKGHVNCPNDCCEAIYSSVSGLKAHLASCSKGAHLAGKYRCLLCPKEFSSESGVKYHILKTHAENWFRTSADPPPKHRSQDSLVPKKEKKKNLAGGKKRGRKPKERTPEEPVAKLPPRRDDWPPGCRDKGARGSTGRKVGVSKAPEK
B8: SEPT6 (protein, UniProt Q14141 1-434)
chain: MAATDIARQVGEGCRTVPLAGHVGFDSLPDQLVNKSVSQGFCFNILCVGETGLGKSTLMDTLFNTKFEGEPATHTQPGVQLQSNTYDLQESNVRLKLTIVSTVGFGDQINKEDSYKPIVEFIDAQFEAYLQEELKIRRVLHTYHDSRIHVCLYFIAPTGHSLKSLDLVTMKKLDSKVNIIPIIAKADAISKSELTKFKIKITSELVSNGVQIYQFPTDDESVAEINGTMNAHLPFAVIGSTEELKIGNKMMRARQYPWGTVQVENEAHCDFVKLREMLIRVNMEDLREQTHTRHYELYRRCKLEEMGFKDTDPDSKPFSLQETYEAKRNEFLGELQKKEEEMRQMFVQRVKEKEAELKEAEKELHEKFDRLKKLHQDEKKKLEDKKKSLDDEVNAFKQRKTAAELLQSQGSQAGGSQTLKRDKEKKNNPWLCTE
B9: THOC3 (protein, UniProt Q96J01 1-351)
chain: MAVPAAAMGPSALGQSGPGSMAPWCSVSSGPSRYVLGMQELFRGHSKTREFLAHSAKVHSVAWSCDGRRLASGSFDKTASVFLLEKDRLVKENNYRGHGDSVDQLCWHPSNPDLFVTASGDKTIRIWDVRTTKCIATVNTKGENINICWSPDGQTIAVGNKDDVVTFIDAKTHRSKAEEQFKFEVNEISWNNDNNMFFLTNGNGCINILSYPELKPVQSINAHPSNCICIKFDPMGKYFATGSADALVSLWDVDELVCVRCFSRLDWPVRTLSFSHDGKMLASASEDHFIDIAEVETGDKLWEVQCESPTFTVAWHPKRPLLAFACDDKDGKYDSSREAGTVKLFGLPNDS
B10: THOC7 (protein, UniProt Q6I9Y2 1-204)
chain: MGAVTDDEVIRKRLLIDGDGAGDDRRINLLVKSFIKWCNSGSQEEGYSQYQRMLSTLSQCEFSMGKTLLVYDMNLREMENYEKIYKEIECSIAGAHEKIAECKKQILQAKRIRKNRQEYDALAKVIQHHPDRHETLKELEALGKELEHLSHIKESVEDKLELRRKQFHVLLSTIHELQQTLENDEKLSEVEEAQEASMETDPKP

Target: HMGB1 (human (endogenous in SKOV-3 and PC-3)) (UniProt P09429)
Test: affinity purification with mass spectrometry; anti-HMGB1 (Abcam ab18256) crosslinked to Protein G-Dynal beads; SKOV-3 and PC-3 whole-cell lysates (three IPs each) and nuclear and cytoplasmic fractions (one each), Benzonase-treated; 4 h at 4 °C; washes with 150 mM NaCl, 0.1% NP-40; IgG control; SAINT score cut-off 0.7

| Molecule | binding |
| --- | --- |
| B1 | binds |
| B2 | binds |
| B3 | binds |
| B4 | binds |
| B5 | binds |
| B6 | binds |
| B7 | binds |
| B8 | binds |

Target: T1, THOC5 (human (endogenous in SKOV-3 and PC-3))
Test: affinity purification with mass spectrometry; anti-THOC5 (Abcam ab86070) crosslinked to Protein G-Dynal beads; PC-3 lysate, Benzonase-treated; 4 h at 4 °C; IgG control; SAINT score cut-off 0.7

| Molecule | binding |
| --- | --- |
| RAB11 (human (endogenous in PC-3)) | binds |
| B1 | binds |
| B2 | binds |
| B5 | binds |
| B9 | binds |
| B10 | binds |

No constants are given. Whether binding was seen depends on the method and setting. Binding seen in cells or lysates may run through a third protein. A yes stands for co-enrichment or nearness to the bait. Other partners may have been found.
